Data published in patent publication US12264173B2 (GILEAD SCIENCES, INC., priority 2020, dated 2025).
At least one compound was matched to its structure with a doubt left.

Tested on: Dengue 2, New Guinea strain (NGC)
Experiment: DENV moDC EC50 (qPCR in human monocyte-derived dendritic cells)
Assay type: cell-based
Conditions: Table 3; human moDCs, 48 hours
Description: Human monocyte-derived dendritic cells (moDCs) were derived from CD14+ monocytes (AllCells) cultured in Human Mo-DC Differentiation medium containing GM-CSF and IL-4 (Miltenyi Biotec). On day 7, moDCs were harvested by mechanical disruption, washed and suspended in serum-free RPMI. moDCs were infected with Vero-derived Dengue 2, New Guinea strain (NGC) at a MOI=0.1 for two hours in serum-free RPMI with gentle agitation at 37° C. Cells were washed and resuspended in 10% serum-containing RPMI (Gibco, supplemented with sodium pyruvate, NEAA, Penicillin-Streptomycin). […] were plated in triplicate in 96-well plates with compounds dispensed at graded doses (Hewlett-Packard D300 Digital Dispenser). All wells were normalized to 0.25% DMSO. At 48 hours, cells were washed with 1×PBS and all supernatants removed. Total RNA was extracted using RNEasy 96 plates (Qiagen) and used to generate first-strand cDNA using XLT cDNA 5× Supermix (QuantaBio). cDNA was used as a template in a Taqman qPCR duplex reaction specific to DENV2 viral and GAPDH gene expression. EC50 values were determined using Prism Graphpad software, with normalization to a positive control and no compound negative control wells.

CC(C)C(=O)O[C@H]1[C@H](c2ccc3c(N)ncnn23)O[C@](C#N)(COP(=O)(N[C@@H](C)C(=O)OC2COC2)Oc2ccccc2)[C@H]1OC(=O)C(C)C (single isomer, unassigned) [Example 185]
EC50: 19.2 µM
